{"source": "patent US6342201B1", "about": "(Institut for Diagnostikforschung GmbH an der Freien …, priority 1994, dated 2002)", "assay": "general procedure: Fmoc solid-phase peptide synthesis", "settings": "conjugation step, theoretical", "data": [{"substance": "HOOC—CH2—S—CH2—CONH-Cys-(D-Trp)-Leu-Asp-Ile-Ile-Trp", "values": [{"measurement": "conjugation yield", "result": 36.4, "unit": "% Th."}]}, {"substance": "HOOC—CH2—S—CH2—CONH-Cys-Phe-(D-Trp)-Leu-Asp-Ile-Ile-Trp", "values": [{"measurement": "conjugation yield", "result": 39.5, "unit": "% Th."}]}, {"substance": "HOOC—CH2—S—CH2—CONH-Cys-His-Leu-Asp-Ile-Ile-Trp", "values": [{"measurement": "conjugation yield", "result": 26.1, "unit": "% Th."}]}, {"substance": "HS—CH2—CONH-Gly-Gly-Asp-(D-Trp)-Leu-Asp-Ile-Ile-Trp", "values": [{"measurement": "conjugation yield", "result": 40.3, "unit": "% Th."}]}, {"substance": "HS—CH2—CONH-Gly-Gly-Asp-Phe-(D-Trp)-Leu-Asp-Ile-Ile-Trp", "values": [{"measurement": "conjugation yield", "result": 43.4, "unit": "% Th."}]}]}
